The target in assay [1] is cGAS-FLAG (cyclic GMP-AMP synthase, FLAG-tagged) (not stated (human or mouse cDNA cloned)) (UniProt Q8C6L5). Put plainly: co-IP.
The target in assay [2] is Full-length (FL) cGAS fused with maltose-binding protein (MBP) (mouse) (UniProt Q8C6L5). The assay can be described thus: pull-down; both purified.

Sequences of proteins named here, by UniProt entry; tags and fusion partners are left off.
UniProt Q8C6L5: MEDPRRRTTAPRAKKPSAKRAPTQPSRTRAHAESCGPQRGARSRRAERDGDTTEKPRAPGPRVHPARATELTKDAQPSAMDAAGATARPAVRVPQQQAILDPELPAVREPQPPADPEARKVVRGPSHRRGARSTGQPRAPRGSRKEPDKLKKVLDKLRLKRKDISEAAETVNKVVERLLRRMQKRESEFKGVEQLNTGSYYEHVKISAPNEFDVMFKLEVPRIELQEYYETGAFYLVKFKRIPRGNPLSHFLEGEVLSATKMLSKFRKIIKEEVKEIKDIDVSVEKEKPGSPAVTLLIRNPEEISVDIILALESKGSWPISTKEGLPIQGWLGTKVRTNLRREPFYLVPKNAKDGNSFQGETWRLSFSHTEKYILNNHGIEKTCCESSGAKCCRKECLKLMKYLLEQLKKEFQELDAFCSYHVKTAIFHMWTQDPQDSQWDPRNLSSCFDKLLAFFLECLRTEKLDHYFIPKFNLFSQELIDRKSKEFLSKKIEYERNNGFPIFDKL
UniProt Q14258: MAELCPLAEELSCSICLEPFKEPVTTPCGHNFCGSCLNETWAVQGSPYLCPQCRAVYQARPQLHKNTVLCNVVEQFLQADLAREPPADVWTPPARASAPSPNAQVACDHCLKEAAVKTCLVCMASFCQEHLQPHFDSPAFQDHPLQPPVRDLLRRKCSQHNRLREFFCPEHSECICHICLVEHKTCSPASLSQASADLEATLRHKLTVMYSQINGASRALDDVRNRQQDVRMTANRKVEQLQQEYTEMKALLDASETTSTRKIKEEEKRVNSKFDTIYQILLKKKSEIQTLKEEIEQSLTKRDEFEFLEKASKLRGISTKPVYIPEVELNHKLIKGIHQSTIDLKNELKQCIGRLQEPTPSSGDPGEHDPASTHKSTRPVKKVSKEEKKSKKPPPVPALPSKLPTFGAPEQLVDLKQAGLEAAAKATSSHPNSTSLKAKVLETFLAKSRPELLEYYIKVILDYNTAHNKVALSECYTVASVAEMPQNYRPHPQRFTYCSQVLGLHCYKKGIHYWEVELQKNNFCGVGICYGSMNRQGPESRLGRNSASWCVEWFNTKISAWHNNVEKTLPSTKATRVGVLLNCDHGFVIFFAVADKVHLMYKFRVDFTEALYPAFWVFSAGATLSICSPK

These are yes or no findings as the source states them, for the method shown. For part of these data: Binding seen in cells or lysates may run through a third protein. Some results given as binding are weak or reduced against the parent protein; the word gives no strength. For part of these data: Sequences can lack the tags named with a protein.

Consider TRIM25-V5 (from UniProt Q14258 1-630), for which the binding result in assay [1] is “no binding”.

B1: Mouse TRIM56-V5 (protein, UniProt Q80VI1 1-734)
chain: MNSKVSSPTLLEALSSDFLACKICLEQLHTPKTLPCLHTYCQDCLAQLDIGGQVRCPECREIVPVPAEGVAAFKTNFFVNGLLDLVKARAPGDVHSGKPTCALCPLVGGKSSGGPATARCLDCADDLCQACADGHRCSRQTHKHRVVDLVGYRAGWYDEEARERQASQCPQHPGEALCFLCQPCSQLLCKDCRLGPHIDHPCLPLAEAVRSRKPGLEELLAGVDSNLVELEATRVAEKEALALLREQAASVGTQVEEAAERILKSLLAQKQEVLGQLRALVEAAEEATRERLTKIERQEQVAKAAAAFARRVLSLGLEAEILSLEGAITQRLRQLQDAPWTSGPTRCVLPQLELHPGLEDKNCHLLRLIFEEPKQSPKDSGKGGAGTQGGDEAQGQGDDRTKIGKQGGAQPLTPKEGKDQNPQEDDGVFIERGNRPNKKKKCKGRGKSVSREPSPILRPNLEGSGLLPRPVFSWSFPTRMPGDKRSPRITGLCPYGPQEILVADEQNRVLKRFSLNGDYKGTVQVPEGCSPCSVAALQNAVAFSANAKLYLVSPDGEIQWRRSLSLTQSSHAVAAMPCGDRVAVSVAGHVEVYKKDGSLATRFIPGGKASRGQRALVFLTTSPQGNFVGSDWQQNSVVFCDGLGQVIWEYKGPGLHGCQPGSVSVDKKGYIFLTLREVNKVVILDPKGSLLGDFLTAYHGLEKPRVTTMVDGKYLVVSLSNGTIHVFRVRFPDS
Regarding B1, the binding entry in assay [1] is on record as “binds”.

B2: TRIM56 purified from HEK293T cells (protein, UniProt Q80VI1 1-734)
chain: MNSKVSSPTLLEALSSDFLACKICLEQLHTPKTLPCLHTYCQDCLAQLDIGGQVRCPECREIVPVPAEGVAAFKTNFFVNGLLDLVKARAPGDVHSGKPTCALCPLVGGKSSGGPATARCLDCADDLCQACADGHRCSRQTHKHRVVDLVGYRAGWYDEEARERQASQCPQHPGEALCFLCQPCSQLLCKDCRLGPHIDHPCLPLAEAVRSRKPGLEELLAGVDSNLVELEATRVAEKEALALLREQAASVGTQVEEAAERILKSLLAQKQEVLGQLRALVEAAEEATRERLTKIERQEQVAKAAAAFARRVLSLGLEAEILSLEGAITQRLRQLQDAPWTSGPTRCVLPQLELHPGLEDKNCHLLRLIFEEPKQSPKDSGKGGAGTQGGDEAQGQGDDRTKIGKQGGAQPLTPKEGKDQNPQEDDGVFIERGNRPNKKKKCKGRGKSVSREPSPILRPNLEGSGLLPRPVFSWSFPTRMPGDKRSPRITGLCPYGPQEILVADEQNRVLKRFSLNGDYKGTVQVPEGCSPCSVAALQNAVAFSANAKLYLVSPDGEIQWRRSLSLTQSSHAVAAMPCGDRVAVSVAGHVEVYKKDGSLATRFIPGGKASRGQRALVFLTTSPQGNFVGSDWQQNSVVFCDGLGQVIWEYKGPGLHGCQPGSVSVDKKGYIFLTLREVNKVVILDPKGSLLGDFLTAYHGLEKPRVTTMVDGKYLVVSLSNGTIHVFRVRFPDS
Take B2: the binding entry in assay [2] is “binds”.

Values taken from paper PMC5807518.
